Our source for the isolated mass and isolated yield values is paper PMC6389962 (Nature Communications, 2019).

HELM strings list residues between dots; [ac] is acetyl, [am] amide, other brackets name non-standard units.

The series can be described thus: general procedure: Fmoc solid-phase peptide synthesis; Sieber resin; PyBOP/DIEA. The following applies: whole synthesis, scale 0.1 mmol.

In turn, “PEPTIDE1{H.G.E.G.T.F.T.S.D.V.S.S.Y.L.E.G.Q.A.A.K.E.F.I.A.W.L.V.K.G.R.G.[am]}$$$$V2.0” yielded an isolated mass of 6.1 mg and an isolated yield of 1.8%.
